Measured values reported in paper PMC4136792.
Results are given in words; binding and its absence hold for the method and conditions named. For some assays here: In cells and extracts the contact can be indirect. Some binding calls cover weakened binding; strength is not graded here. One block for each substance: values may come before it.

The chains behind the UniProt entries cited, without tags or fusion partners. Where a name states a change or a piece, a line headed by the entry shows the natural chain unless it says otherwise.
UniProt Q15796: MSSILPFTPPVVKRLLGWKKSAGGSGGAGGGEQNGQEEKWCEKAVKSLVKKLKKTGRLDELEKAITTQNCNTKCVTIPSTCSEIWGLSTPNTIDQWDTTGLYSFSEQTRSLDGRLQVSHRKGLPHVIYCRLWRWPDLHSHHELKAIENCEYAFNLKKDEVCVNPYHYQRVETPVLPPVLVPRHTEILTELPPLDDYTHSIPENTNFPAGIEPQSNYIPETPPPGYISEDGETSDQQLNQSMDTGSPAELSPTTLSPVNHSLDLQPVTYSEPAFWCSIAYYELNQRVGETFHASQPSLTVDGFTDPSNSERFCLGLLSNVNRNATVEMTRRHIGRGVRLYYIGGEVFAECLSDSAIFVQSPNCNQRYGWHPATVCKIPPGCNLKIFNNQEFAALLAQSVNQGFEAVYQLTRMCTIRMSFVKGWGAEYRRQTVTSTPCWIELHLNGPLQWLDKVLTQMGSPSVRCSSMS
UniProt P09874: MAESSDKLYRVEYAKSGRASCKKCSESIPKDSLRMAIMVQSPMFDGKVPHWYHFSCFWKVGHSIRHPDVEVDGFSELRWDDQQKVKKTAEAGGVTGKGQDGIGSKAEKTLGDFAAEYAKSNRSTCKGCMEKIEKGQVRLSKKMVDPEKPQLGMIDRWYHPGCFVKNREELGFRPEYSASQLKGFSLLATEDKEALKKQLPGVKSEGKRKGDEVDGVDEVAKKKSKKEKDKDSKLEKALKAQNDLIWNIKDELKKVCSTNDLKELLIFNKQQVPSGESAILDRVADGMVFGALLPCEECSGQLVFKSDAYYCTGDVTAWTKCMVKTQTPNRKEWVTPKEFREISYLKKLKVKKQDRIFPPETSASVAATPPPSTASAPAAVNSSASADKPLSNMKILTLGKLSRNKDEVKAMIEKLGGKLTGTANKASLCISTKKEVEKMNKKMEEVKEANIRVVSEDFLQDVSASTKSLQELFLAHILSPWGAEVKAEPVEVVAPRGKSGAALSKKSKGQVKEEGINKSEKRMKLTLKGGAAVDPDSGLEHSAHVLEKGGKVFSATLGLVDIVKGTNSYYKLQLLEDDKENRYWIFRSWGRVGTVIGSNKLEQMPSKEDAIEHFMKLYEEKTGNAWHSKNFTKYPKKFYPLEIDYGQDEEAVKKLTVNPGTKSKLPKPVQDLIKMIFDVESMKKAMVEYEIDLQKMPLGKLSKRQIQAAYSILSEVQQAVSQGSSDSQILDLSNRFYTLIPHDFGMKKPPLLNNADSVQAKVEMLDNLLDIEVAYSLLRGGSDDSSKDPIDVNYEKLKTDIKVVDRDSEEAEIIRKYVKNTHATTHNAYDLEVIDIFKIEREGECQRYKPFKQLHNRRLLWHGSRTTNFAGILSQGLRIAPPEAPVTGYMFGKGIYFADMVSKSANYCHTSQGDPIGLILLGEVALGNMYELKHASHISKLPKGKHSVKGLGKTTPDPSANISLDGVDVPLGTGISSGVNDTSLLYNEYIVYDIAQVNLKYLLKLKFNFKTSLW
UniProt Q9UGN5: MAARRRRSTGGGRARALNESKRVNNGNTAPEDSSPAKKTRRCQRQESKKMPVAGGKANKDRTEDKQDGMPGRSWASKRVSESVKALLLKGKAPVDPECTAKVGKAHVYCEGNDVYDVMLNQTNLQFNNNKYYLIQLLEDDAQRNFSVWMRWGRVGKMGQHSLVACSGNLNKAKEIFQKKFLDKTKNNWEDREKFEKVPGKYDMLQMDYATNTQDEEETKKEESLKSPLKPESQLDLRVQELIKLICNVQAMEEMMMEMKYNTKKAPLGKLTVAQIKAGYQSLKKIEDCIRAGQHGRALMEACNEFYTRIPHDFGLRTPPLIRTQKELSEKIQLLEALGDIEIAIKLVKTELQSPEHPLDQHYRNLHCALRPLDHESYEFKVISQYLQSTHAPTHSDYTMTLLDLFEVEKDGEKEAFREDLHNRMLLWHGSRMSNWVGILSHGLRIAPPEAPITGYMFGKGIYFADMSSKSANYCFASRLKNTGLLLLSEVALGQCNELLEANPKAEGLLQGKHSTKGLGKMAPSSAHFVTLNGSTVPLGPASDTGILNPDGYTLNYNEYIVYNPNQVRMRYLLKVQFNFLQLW
UniProt P84022: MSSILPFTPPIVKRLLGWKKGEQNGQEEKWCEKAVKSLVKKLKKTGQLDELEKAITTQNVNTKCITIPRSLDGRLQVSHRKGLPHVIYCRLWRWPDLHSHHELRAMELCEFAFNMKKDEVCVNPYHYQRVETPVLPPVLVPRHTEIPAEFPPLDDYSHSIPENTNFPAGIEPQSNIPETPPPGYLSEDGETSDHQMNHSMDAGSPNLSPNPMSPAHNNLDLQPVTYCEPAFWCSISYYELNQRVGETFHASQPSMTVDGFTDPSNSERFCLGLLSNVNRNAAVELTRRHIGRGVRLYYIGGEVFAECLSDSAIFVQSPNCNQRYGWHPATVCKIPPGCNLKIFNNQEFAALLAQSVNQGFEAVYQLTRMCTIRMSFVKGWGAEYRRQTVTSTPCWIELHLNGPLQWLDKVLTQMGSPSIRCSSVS
UniProt Q13485: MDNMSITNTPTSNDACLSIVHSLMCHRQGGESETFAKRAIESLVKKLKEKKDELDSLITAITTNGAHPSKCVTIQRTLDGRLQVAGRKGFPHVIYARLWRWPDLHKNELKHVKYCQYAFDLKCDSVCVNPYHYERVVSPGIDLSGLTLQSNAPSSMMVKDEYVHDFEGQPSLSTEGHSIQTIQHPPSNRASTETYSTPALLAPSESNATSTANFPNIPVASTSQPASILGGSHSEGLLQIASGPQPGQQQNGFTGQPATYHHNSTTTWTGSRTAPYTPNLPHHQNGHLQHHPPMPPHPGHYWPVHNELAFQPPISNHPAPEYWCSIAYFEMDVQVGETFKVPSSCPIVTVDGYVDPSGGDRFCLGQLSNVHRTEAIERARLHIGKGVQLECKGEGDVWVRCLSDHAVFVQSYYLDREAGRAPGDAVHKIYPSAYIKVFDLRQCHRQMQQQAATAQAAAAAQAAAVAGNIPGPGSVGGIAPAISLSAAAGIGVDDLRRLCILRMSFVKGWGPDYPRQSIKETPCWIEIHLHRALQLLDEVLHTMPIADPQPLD

Experiments:
[1] = molecular target: Flag-Smad2/3/4 (Flag-Smad2, Flag-Smad3 and Flag-Smad4 co-expressed) (UniProt Q15796); test: co-IP; HEK-293T transiently transfected with Flag-Smad2/3/4; anti-Flag immunoprecipitation, immunoblot for endogenous PARP-1 and PARP-2; vehicle or 5 ng/ml TGFβ1 for 30 min; NP-40 lysis buffer, one wash with 0.5 M NaCl
[2] = molecular target: poly(ADP-ribose) polymerase-1 (PARP-1) (human (endogenous in HaCaT)) (UniProt P09874); test: co-IP; endogenous proteins of HaCaT lysate; immunoprecipitation of PARP-1 or of PARP-2, immunoblot with the reciprocal antibody; vehicle or 5 ng/ml TGFβ1 for 30 min
[3] = molecular target: poly(ADP-ribose) polymerase-1 (PARP-1) (human (endogenous in HaCaT)) (UniProt P09874); test: proximity ligation; in situ PLA (Duolink II) on permeabilized HaCaT cells, endogenous proteins, one mouse and one rabbit primary antibody; vehicle, 2 ng/ml TGFβ1 for 0.5 or 1.5 h, or 10 mM hydrogen peroxide for 10 min; control, PARP-1 or PARP-2 siRNA
[4] = molecular target: PARP-2 (human (endogenous in HaCaT)) (UniProt Q9UGN5); test: co-IP; endogenous proteins of HaCaT lysate; immunoprecipitation of PARP-1 or of PARP-2, immunoblot with the reciprocal antibody; vehicle or 5 ng/ml TGFβ1 for 30 min
[5] = molecular target: Smad3 (human (endogenous in HaCaT)) (UniProt P84022); test: proximity ligation; in situ PLA (Duolink II) on permeabilized HaCaT cells, endogenous proteins, one mouse and one rabbit primary antibody; vehicle, 2 ng/ml TGFβ1 for 0.5 or 1.5 h, or 10 mM hydrogen peroxide for 10 min; control, PARP-1 or PARP-2 siRNA
GST-Smad3 = GST-Smad3 (UniProt P84022); test: pull-down; GST or GST-Smad proteins kept on glutathione beads, incubated with 100 ng PARP-1 and/or 100 ng PARP-2 in 100 mM Tris-HCl pH 8, 10 mM MgCl2, 1 mM dithiothreitol with β-NAD and 32P-β-NAD for 30 min at 37°C; beads washed in NP-40 lysis buffer; SDS-PAGE and autoradiography (only ADP-ribosylated proteins are seen); both purified
GST-Smad4 = GST-Smad4 (UniProt Q13485); test: as above

binding [1]: binds
Substance: PARP-1 (from UniProt P09874 1-1014) (enzyme)

binding [2]: binds
binding [1]: binds
binding [3]: binds
Substance: PARP-2 (from UniProt Q9UGN5 1-583) (enzyme)

binding [4]: binds
binding [5]: binds
Substance: poly(ADP-ribose) polymerase-1 (PARP-1) (from UniProt P09874 1-1014) (enzyme)

binding (GST-Smad3): binds
binding (GST-Smad4): binds
Substance: recombinant PARP-1 (from UniProt P09874 1-1014) (enzyme)
